The values below come from publication PMC4795683.

This assay concerns the target T1, Cuf2-TAP (S. pombe) (UniProt O94588).
T1 sequence: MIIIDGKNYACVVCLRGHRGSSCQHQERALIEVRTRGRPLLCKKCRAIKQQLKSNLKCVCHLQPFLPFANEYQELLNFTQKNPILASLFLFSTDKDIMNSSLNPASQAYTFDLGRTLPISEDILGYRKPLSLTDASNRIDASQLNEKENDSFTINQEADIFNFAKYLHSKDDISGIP
The experiment in a line: co-IP; TAP pull-down: whole-cell extracts (10 mg protein) of vegetative S. pombe cells, Mei4-GFP induced 18 h without thiamine, mixed with IgG Sepharose 6 Fast-Flow beads 2 h at 4°C; lysis buffer 10 mM Tris-HCl pH 7.9, 0.1% Triton X-100, 0.5 mM EDTA, 20% glycerol, 100 mM NaCl; bound proteins blotted with anti-GFP, anti-IgG and anti-α-tubulin.

These are yes or no findings as the source states them, for the method shown. Binding seen in cells or lysates may run through a third protein.

Regarding “α-tubulin (S. pombe (endogenous in S. pombe cells))”, the binding entry is on record as “no binding”.
